Literature values in patent US20140315838A1, “Methods of Treating Recurring Bacterial Infection” (Optimer Pharmaceuticals, Inc., priority 2010, published 2014).
Some results were stated once for a whole list of compounds, not compound by compound.

System: Clostridium difficile
Settings: CDAD patients after treatment with either vancomycin or metronidazole; cited from earlier work

Structure (SMILES)	Clinical recurrence (cases after treatment)
CN[C@H](CC(C)C)C(=O)N[C@H]1C(=O)N[C@@H](CC(N)=O)C(=O)N[C@H]2C(=O)N[C@H]3C(=O)N[C@H](C(=O)N[C@H](C(=O)O)c4cc(O)cc(O)c4-c4cc3ccc4O)[C@H](O)c3ccc(c(Cl)c3)Oc3cc2cc(c3O[C@@H]2O[C@H](CO)[C@@H](O)[C@H](O)[C@H]2O[C@H]2C[C@](C)(N)[C@H](O)[C@H](C)O2)Oc2ccc(cc2Cl)[C@H]1O [Vancomycin]	up to 20%
Cc1ncc([N+](=O)[O-])n1CCO [metronidazole]	up to 20%
